Data taken from publication PMC11432245.

Protein sequences, listed by entry. Tags and fused reporters are not part of them.
UniProt P35226: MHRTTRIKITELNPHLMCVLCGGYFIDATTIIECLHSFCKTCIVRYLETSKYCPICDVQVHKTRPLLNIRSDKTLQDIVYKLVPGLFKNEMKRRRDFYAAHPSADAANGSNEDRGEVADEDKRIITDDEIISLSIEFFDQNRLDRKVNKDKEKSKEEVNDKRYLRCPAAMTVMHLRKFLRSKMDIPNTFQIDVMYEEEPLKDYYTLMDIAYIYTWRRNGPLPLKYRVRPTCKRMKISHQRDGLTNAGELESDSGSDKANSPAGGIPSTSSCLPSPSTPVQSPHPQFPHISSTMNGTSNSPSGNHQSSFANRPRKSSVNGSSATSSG
UniProt Q14781: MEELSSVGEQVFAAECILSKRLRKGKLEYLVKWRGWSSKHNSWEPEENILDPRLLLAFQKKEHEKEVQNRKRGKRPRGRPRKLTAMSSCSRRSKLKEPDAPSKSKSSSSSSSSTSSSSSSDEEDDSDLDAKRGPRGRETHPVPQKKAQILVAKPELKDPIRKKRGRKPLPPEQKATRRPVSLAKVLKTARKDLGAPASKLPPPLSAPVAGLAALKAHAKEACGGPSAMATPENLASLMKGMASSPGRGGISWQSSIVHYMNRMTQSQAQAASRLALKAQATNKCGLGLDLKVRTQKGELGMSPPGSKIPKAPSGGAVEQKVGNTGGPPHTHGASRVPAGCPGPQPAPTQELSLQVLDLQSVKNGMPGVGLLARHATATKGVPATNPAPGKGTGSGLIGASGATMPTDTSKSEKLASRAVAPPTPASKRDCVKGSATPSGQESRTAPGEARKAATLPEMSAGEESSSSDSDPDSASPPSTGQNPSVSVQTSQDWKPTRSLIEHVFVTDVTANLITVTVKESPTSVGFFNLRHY
UniProt Q9HC52: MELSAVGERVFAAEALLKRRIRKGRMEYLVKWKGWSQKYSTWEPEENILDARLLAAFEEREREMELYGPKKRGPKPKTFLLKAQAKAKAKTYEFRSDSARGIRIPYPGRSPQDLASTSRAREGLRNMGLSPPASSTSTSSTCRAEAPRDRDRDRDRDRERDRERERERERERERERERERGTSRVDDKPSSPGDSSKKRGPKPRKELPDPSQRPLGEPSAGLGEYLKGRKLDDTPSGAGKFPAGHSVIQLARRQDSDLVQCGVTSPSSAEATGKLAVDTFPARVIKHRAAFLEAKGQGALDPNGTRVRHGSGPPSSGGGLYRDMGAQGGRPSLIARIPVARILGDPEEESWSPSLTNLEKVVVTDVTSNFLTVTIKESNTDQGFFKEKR
UniProt Q09028: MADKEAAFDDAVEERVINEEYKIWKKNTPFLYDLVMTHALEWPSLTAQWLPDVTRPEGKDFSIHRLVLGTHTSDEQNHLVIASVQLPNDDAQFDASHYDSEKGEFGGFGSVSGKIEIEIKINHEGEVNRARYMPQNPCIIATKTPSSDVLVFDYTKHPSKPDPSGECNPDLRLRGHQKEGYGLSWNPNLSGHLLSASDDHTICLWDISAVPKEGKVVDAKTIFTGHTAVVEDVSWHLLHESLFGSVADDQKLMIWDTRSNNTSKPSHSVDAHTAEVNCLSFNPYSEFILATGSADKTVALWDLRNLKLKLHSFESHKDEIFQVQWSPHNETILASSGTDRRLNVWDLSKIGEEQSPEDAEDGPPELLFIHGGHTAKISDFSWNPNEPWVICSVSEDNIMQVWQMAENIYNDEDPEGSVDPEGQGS
UniProt Q99496: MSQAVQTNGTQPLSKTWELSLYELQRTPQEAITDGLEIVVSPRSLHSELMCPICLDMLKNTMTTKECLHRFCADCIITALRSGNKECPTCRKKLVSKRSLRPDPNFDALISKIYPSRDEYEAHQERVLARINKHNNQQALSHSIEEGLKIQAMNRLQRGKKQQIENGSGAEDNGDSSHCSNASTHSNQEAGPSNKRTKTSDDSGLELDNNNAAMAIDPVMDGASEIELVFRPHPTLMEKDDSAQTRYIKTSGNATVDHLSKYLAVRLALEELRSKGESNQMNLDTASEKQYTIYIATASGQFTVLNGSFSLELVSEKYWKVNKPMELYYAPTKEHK
UniProt Q96GD3: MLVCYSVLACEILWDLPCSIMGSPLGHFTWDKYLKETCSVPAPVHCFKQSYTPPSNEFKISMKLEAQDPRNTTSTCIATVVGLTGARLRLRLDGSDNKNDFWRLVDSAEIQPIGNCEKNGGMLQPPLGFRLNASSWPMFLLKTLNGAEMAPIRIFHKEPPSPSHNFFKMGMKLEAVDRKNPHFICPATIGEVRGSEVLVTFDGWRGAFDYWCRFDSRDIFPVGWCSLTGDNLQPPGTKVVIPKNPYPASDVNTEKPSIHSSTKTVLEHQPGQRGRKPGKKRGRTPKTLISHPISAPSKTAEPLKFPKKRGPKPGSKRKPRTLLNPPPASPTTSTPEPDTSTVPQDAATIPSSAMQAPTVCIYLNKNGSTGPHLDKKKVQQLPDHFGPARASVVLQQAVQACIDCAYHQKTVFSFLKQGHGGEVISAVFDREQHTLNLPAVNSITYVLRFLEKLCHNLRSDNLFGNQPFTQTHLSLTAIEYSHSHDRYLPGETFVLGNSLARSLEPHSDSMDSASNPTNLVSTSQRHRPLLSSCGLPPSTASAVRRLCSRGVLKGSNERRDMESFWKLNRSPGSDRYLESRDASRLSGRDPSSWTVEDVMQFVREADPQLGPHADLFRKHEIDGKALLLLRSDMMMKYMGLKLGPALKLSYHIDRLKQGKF
UniProt Q9UQR0: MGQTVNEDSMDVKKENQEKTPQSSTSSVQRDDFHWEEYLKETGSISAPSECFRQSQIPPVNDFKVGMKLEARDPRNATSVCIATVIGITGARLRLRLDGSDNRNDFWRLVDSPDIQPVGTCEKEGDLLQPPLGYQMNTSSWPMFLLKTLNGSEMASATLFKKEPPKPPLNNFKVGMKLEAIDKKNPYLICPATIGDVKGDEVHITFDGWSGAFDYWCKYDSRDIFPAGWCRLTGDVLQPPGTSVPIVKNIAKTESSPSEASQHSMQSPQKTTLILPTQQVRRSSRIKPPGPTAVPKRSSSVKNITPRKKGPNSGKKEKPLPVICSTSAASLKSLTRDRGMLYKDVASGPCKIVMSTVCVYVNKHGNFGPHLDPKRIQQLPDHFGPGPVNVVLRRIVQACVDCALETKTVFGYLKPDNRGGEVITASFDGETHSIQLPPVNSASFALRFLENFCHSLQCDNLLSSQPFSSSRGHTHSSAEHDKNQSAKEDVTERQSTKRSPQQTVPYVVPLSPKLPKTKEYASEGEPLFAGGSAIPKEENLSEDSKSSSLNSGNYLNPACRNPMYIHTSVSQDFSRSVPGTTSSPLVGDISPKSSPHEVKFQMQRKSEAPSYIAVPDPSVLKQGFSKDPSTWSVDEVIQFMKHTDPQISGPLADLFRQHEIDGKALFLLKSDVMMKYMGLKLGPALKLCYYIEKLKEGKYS

T1: PCGF2 (human (endogenous in NT2)) (UniProt P35227)
T1 sequence: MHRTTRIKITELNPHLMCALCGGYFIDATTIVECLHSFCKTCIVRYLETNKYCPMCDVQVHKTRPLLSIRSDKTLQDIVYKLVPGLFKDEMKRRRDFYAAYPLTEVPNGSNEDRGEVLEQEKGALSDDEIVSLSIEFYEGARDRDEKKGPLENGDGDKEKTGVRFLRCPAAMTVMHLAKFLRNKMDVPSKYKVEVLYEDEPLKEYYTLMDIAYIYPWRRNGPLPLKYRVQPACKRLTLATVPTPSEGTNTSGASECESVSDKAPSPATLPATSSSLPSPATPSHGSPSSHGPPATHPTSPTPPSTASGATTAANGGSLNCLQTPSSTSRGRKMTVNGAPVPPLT


Experiments:
[1] = biological target: PCGF4/BMI1 (human (endogenous in NT2)) (UniProt P35226); assay: affinity purification with mass spectrometry; endogenous proteins; NT2 nuclear lysates immunoprecipitated with α-PCGF1, α-PCGF2, α-PCGF4/BMI1 or α-RNF2/RING1B, rabbit IgG as negative control; trypsin digestion on beads, label-free quantitation (MaxQuant), FDR 1%, ≥1.5-fold change
[2] = biological target: T1, PCGF2 (human (endogenous in NT2)); assay: as above

binding [1] | binding [2] | Molecule
binds |  | CBX2 (from UniProt Q14781 1-532)
 | binds | CBX8 (from UniProt Q9HC52 1-389)
binds | binds | RBBP4 (from UniProt Q09028 1-425)
 | binds | RNF2/RING1B (from UniProt Q99496 1-336)
binds | binds | SCMH1 (from UniProt Q96GD3 1-660)
binds | binds | SCML2 (from UniProt Q9UQR0 1-700)
binds | binds | PHC1 (protein, UniProt P78364 1-1004) METESEQNSNSTNGSSSSGGSSRPQIAQMSLYERQAVQALQALQRQPNAAQYFHQFMLQQQLSNAQLHSLAAVQQATIAASRQASSPNTSTTQQQTTTTQASINLATTSAAQLISRSQSVSSPSATTLTQSVLLGNTTSPPLNQSQAQMYLRPQLGNLLQVNRTLGRNVPLASQLILMPNGAVAAVQQEVPSAQSPGVHADADQVQNLAVRNQQASAQGPQMQGSTQKAIPPGASPVSSLSQASSQALAVAQASSGATNQSLNLSQAGGGSGNSIPGSMGPGGGGQAHGGLGQLPSSGMGGGSCPRKGTGVVQPLPAAQTVTVSQGSQTEAESAAAKKAEADGSGQQNVGMNLTRTATPAPSQTLISSATYTQIQPHSLIQQQQQIHLQQKQVVIQQQIAIHHQQQFQHRQSQLLHTATHLQLAQQQQQQQQQQQQQQQPQATTLTAPQPPQVPPTQQVPPSQSQQQAQTLVVQPMLQSSPLSLPPDAAPKPPIPIQSKPPVAPIKPPQLGAAKMSAAQQPPPHIPVQVVGTRQPGTAQAQALGLAQLAAAVPTSRGMPGTVQSGQAHLASSPPSSQAPGALQECPPTLAPGMTLAPVQGTAHVVKGGATTSSPVVAQVPAAFYMQSVHLPGKPQTLAVKRKADSEEERDDVSTLGSMLPAKASPVAESPKVMDEKSSLGEKAESVANVNANTPSSELVALTPAPSVPPPTLAMVSRQMGDSKPPQAIVKPQILTHIIEGFVIQEGAEPFPVGCSQLLKESEKPLQTGLPTGLTENQSGGPLGVDSPSAELDKKANLLKCEYCGKYAPAEQFRGSKRFCSMTCAKRYNVSCSHQFRLKRKKMKEFQEANYARVRRRGPRRSSSDIARAKIQGKCHRGQEDSSRGSDNSSYDEALSPTSPGPLSVRAGHGERDLGNPNTAPPTPELHGINPVFLSSNPSRWSVEEVYEFIASLQGCQEIAEEFRSQEIDGQALLLLKEEHLMSAMNIKLGPALKICAKINVLKET
binds | binds | CBX4 (protein, UniProt O00257 1-560) MELPAVGEHVFAVESIEKKRIRKGRVEYLVKWRGWSPKYNTWEPEENILDPRLLIAFQNRERQEQLMGYRKRGPKPKPLVVQVPTFARRSNVLTGLQDSSTDNRAKLDLGAQGKGQGHQYELNSKKHHQYQPHSKERAGKPPPPGKSGKYYYQLNSKKHHPYQPDPKMYDLQYQGGHKEAPSPTCPDLGAKSHPPDKWAQGAGAKGYLGAVKPLAGAAGAPGKGSEKGPPNGMMPAPKEAVTGNGIGGKMKIVKNKNKNGRIVIVMSKYMENGMQAVKIKSGEVAEGEARSPSHKKRAADERHPPADRTFKKAAGAEEKKVEAPPKRREEEVSGVSDPQPQDAGSRKLSPTKEAFGEQPLQLTTKPDLLAWDPARNTHPPSHHPHPHPHHHHHHHHHHHHAVGLNLSHVRKRCLSETHGEREPCKKRLTARSISTPTCLGGSPAAERPADLPPAAALPQPEVILLDSDLDEPIDLRCVKTRSEAGEPPSSLQVKPETPASAAVAVAAAAAPTTTAEKPPAEAQDEPAESLSEFKPFFGNIIITDVTANCLTVTFKEYVTV

No constants are given. Whether binding was seen depends on the method and setting. Binding seen in cells or lysates may run through a third protein. A yes stands for co-enrichment or nearness to the bait. Other partners may have been found.
